Experimental data as given in PubChem BioAssay AID2685 (National Center for Advancing Translational Sciences (NCATS), 2010).
Some of the results follow. The main result of the screen is listed elsewhere. These columns were measured beside it and carry no call. Most of these compounds were active or inconclusive in the main read-out, so they are no random draw. The note in brackets gives the kind of curve behind each potency; many fits are weak.

Assay: qHTS Assay for Lipid Storage Modulators in Drosophila S3 Cells;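 for cell number change: cells counted by Cell Tracker Red CMTPX staining in the red channel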
Conditions: BODIPY lipid droplet fluorescence, 18-24 h; for cell number change: measured here: cell count max response, cells fed with added oleic acid
How it was run: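 Drosophila S3 cells loaded with oleic acid (400 uM, as added) and compounds at several concentrations; lipid droplets imaged by 488-nm laser-scanning cytometry, 500–530 nm intensity and object ratio to cell channel. Percent activity normalized to 20 uM Triacsin C.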

[1] = measured here: cell number channel AC50, cells fed with added oleic acid
[2] = measured here: lipid fluorescence (Fed channel) AC50, cells fed with added oleic acid

Structure (SMILES) | cell number change [%] | AC50 [1] | AC50 [2]
O=C(COC(=O)CCc1nc2ccccc2c(=O)[nH]1)Nc1ccc(N2CCOCC2)cc1 | -44.1 | 29.1 µM [falling, single point] | 
COc1ccc(N=C(N)N=C(N)N)c(OC)c1 | -3.5 |  | 0.231 µM [falling, full curve, poor fit]
O=C(O)c1cccnc1SCC(=O)N1CCCCCC1 | -24.7 |  | 20.6 µM [falling, single point]
CCOC(=O)C(C)Sc1nc2c(c(=O)[nH]c(=O)n2C)n1C/C=C(/C)Cl (stereo not drawn) | -2.51 |  | 
CC1CC(C)CN(S(=O)(=O)c2ccc(C(=O)N3CCOCC3)cc2)C1 (stereo not drawn) | 21.9 |  | 6.51 µM [rising, full curve, poor fit]
O=C(O)/C=C/C(=O)NCc1ccccc1 | 12.4 |  | 0.146 µM [rising, full curve, poor fit]
CCn1c(SCC(=O)NC2CCS(=O)(=O)C2)nnc1-c1ccccc1 (stereo not drawn) | -20.6 | 0.58 µM [falling, full curve, poor fit] | 
N#CCc1nn(-c2ccc(Cl)cc2)c(N)c1C#N | 11.9 |  | 5.8 µM [rising, full curve, poor fit]
COc1ccc(CCN(C(=O)c2cccc(F)c2)C2CC(=O)N(c3ccc(OC)cc3)C2=O)cc1 (stereo not drawn) | 121 | 18.4 µM [rising, single point] | 
O=C(CNC(=O)c1ccc(Cl)cc1Cl)Nc1ccc(F)cc1 | 4.42 |  | 2.31 µM [rising, partial curve]
CN(C)c1ccc(C(=O)OCc2ccccc2)cc1 | 57.1 | 3.66 µM [rising, full curve] | 13 µM [rising, partial curve]
COc1ccc(C(=O)Oc2cc(C)c(CN3CCOCC3)cc2C)cc1OC | 9.46 |  | 0.58 µM [falling, single point]
O=C(O)C1CCCCC1C(=O)Nc1ccc(F)cc1F (stereo not drawn) | 33 | 29.1 µM [rising, single point] | 29.1 µM [rising, single point]
O=C(NNS(=O)(=O)c1ccccc1)c1cc2cc3ccccc3nc2s1 | 13.2 |  | 29.1 µM [rising, single point]
Cn1c(=O)n(CC(=O)NCc2cccnc2)c2ccccc21 | -16.4 | 0.092 µM [falling, full curve, poor fit] | 
COc1ccc(-n2cnc3cc(C(=O)NCCN4CCOCC4)ccc32)cc1 | -10.9 |  | 1.64 µM [falling, single point]
O=C(c1nn(-c2ccccc2)c(=O)c2ccccc12)N1CCN(c2ncccn2)CC1 | -11 |  | 0.0184 µM [falling, full curve, poor fit]
CCS(=O)c1ccccc1C(=O)OCC(=O)Nc1cccc(S(=O)(=O)N2CCCCC2)c1 (stereo not drawn) | -21 |  | 29.1 µM [falling, single point]
CCN(CC)CCNC(=O)CNC(=S)N(CCCN1CCOCC1)Cc1cccs1 |  |  | 0.259 µM [falling, partial curve]
CN1C(=O)N(CC(=O)NCc2ccc(Cl)cc2Cl)C(=O)C12CCCCC2 | 1.84 |  | 6.51 µM [rising, single point]
Cc1ccc(OCC(=O)c2cc(C)n(CC(F)(F)F)c2C)c([N+](=O)[O-])n1 | 7.5 |  | 0.92 µM [rising, full curve, poor fit]
Cn1nc(-c2ccc(Cl)cc2)c2cc(C(=O)N3CCOCC3)sc21 | -6.24 |  | 23.1 µM [rising, single point]
Cc1cccc(OCC(=O)NNC(=O)Cn2c(=O)cnc3ccccc32)c1 | 25 |  | 23.1 µM [rising, single point]
Nc1cc(OCC(F)(F)F)cc(OCC(F)(F)F)c1 | -4.92 |  | 
O=C(OCc1nc2ccccc2s1)C1CCN(C2=NS(=O)(=O)c3ccccc32)CC1 | 1.4 |  | 1.16 µM [falling, full curve, poor fit]
COc1ccc(NC(=S)/N=C(\N)Nc2nc(C)c3ccccc3n2)cc1 | 11.8 |  | 0.103 µM [rising, full curve, poor fit]
CCC1=Nc2ccccc2NC2=C1C(=O)CCC2 | 21.6 |  | 6.51 µM [rising, single point]
C[C@@H](NC(=O)c1[nH]cnc1C(=O)Nc1ccc(Cl)cc1)c1ccccc1 | -17.7 | 0.731 µM [falling, single point] | 1.16 µM [rising, partial curve]
COc1ccc(Cl)cc1S(=O)(=O)N1CCCC(C(=O)NCCc2ccccc2)C1 (stereo not drawn) | 17 |  | 13 µM [falling, partial curve, poor fit]

A run of entries of the results above, for reference:
Structure (SMILES) | cell number change [%] | AC50 [1] | AC50 [2]
C[C@@H](NC(=O)c1[nH]cnc1C(=O)Nc1ccc(Cl)cc1)c1ccccc1 | -17.7 | 0.731 µM [falling, single point] | 1.16 µM [rising, partial curve]
COc1ccc(Cl)cc1S(=O)(=O)N1CCCC(C(=O)NCCc2ccccc2)C1 (stereo not drawn) | 17 |  | 13 µM [falling, partial curve, poor fit]
